Results on two sequences are retold here after patent US20120028811.

Amino acid sequences for entries named in this document (tags omitted). A change or cut given only in a name is not applied to a line headed by its entry.
UniProt P13393: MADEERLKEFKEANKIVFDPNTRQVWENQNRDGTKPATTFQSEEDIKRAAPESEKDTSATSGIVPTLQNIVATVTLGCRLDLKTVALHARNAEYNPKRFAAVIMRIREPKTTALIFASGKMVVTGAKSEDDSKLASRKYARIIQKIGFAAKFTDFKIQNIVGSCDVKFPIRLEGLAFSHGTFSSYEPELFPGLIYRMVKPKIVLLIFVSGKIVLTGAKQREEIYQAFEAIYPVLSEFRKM

For data set [1], the target named is TATA-binding protein (TBP) (UniProt P13393). Nature of the data set: binding assay. The conditions noted are these: sol-gel array; lower binding activity than ms-6.16; purified recombinant protein; label: Cy3 (3'-end, Cy3-dUTP by TdT).
Data set [2] has the same target. Nature of the data set: EMSA. Particulars: CITED earlier measurement for TBPApt #17 (same variable sequence); purified recombinant protein; label: Cy3 (3'-end, Cy3-dUTP by TdT).

For at least one entry, the source does not settle the construct or the ends of the probe.

As to “CAUGGGCAAGACAAGACAAAUACUGUCAGUCGACCAUGAGCCUGACCGCC [ms-6.4]”, in data set [1], the binding result is reported as “binds”. For the sequence “ACGACACCGAAGGCGCCCCGAAGGGGGGCAAGGAGCCAUACCAAACCAGG [ms-6.16 (= TBPApt #17)]”, the binding result in data set [2] is listed as “binds”.
